No constants are given. Whether binding was seen depends on the method and setting. Binding seen in cells or lysates may run through a third protein. Some results given as binding are weak or reduced against the parent protein; the word gives no strength.

Sequences of proteins named here, by UniProt entry; tags and fusion partners are left off. Residues count along the entry.
UniProt Q68FD5: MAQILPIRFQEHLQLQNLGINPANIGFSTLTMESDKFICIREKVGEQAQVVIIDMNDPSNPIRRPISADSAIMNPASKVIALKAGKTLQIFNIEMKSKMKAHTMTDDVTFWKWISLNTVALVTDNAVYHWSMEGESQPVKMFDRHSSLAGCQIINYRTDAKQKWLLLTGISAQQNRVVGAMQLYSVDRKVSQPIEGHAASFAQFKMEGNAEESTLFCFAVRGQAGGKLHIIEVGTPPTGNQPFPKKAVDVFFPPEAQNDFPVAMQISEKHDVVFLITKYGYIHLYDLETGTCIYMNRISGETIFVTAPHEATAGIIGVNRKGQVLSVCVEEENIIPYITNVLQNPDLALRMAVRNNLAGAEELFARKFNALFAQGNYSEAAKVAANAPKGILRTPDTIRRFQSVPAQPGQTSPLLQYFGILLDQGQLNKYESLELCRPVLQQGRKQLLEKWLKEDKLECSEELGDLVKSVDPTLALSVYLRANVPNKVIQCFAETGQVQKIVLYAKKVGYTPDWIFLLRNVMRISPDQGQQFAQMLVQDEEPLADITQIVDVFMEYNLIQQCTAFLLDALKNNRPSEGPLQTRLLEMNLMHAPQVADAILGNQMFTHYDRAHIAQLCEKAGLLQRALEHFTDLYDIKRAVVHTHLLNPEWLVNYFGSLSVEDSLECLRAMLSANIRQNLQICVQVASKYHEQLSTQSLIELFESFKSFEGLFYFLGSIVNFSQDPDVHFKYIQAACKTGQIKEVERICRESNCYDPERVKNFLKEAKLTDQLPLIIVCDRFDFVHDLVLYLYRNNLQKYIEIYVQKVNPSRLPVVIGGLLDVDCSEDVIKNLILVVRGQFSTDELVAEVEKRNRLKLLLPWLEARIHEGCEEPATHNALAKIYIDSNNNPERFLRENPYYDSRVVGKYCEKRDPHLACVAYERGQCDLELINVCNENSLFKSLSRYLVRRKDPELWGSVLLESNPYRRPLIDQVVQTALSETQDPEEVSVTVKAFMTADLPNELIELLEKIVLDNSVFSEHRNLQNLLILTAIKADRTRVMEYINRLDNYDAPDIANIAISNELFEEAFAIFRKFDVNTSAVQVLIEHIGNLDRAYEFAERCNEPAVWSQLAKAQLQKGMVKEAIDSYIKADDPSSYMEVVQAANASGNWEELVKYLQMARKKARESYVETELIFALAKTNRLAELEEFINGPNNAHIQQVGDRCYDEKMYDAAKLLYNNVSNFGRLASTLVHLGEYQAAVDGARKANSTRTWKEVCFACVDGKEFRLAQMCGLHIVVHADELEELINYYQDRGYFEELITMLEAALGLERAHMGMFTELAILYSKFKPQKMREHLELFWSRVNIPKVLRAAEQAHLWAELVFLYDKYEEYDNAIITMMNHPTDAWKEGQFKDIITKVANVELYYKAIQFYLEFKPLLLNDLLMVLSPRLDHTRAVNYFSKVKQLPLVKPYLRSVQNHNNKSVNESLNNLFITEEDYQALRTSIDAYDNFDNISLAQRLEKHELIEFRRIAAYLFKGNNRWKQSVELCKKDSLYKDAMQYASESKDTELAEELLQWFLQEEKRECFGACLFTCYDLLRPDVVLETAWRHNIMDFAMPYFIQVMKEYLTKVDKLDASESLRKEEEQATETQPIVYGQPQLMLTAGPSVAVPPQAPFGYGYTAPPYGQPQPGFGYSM
UniProt Q62151, residues 23-402: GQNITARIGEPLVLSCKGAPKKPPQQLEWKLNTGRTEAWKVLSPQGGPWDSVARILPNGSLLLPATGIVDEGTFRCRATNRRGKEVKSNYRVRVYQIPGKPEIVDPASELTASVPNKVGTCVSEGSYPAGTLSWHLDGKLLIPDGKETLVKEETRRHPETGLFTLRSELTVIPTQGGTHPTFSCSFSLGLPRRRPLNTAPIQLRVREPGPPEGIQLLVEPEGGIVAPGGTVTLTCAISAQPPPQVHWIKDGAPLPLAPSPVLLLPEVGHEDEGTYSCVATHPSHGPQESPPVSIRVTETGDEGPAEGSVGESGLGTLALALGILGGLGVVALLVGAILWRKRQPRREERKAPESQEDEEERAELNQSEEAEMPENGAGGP
UniProt Q9WVE8: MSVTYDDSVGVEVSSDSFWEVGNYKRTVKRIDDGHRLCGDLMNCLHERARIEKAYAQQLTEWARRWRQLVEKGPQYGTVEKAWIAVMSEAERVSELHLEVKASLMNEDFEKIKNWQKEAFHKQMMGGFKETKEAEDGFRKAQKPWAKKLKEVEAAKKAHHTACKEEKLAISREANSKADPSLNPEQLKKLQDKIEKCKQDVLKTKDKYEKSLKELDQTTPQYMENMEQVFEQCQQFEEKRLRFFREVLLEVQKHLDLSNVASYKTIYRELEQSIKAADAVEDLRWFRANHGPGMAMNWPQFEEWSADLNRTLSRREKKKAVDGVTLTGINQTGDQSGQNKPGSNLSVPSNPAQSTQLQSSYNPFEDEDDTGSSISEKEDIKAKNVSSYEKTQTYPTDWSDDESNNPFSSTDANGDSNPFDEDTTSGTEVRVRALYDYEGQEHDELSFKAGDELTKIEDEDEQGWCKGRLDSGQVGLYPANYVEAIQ

Experimental findings from paper PMC8882007, “Syndapin-2 mediated transcytosis of amyloid-β across the blood–brain barrier” (Brain Communications, 2022) are described below.

Assay in all cases: proximity ligation; Duolink PLA between two endogenous proteins in polarized bEnd3 monolayers, fixed in 4% PFA and permeabilized with 0.1% Triton X-100; two primary antibodies overnight at 4°C; PLA signal normalized by the number of nuclei; also in shRNA control (scramble) and syndapin-2 knockdown cells, and after FAM-Aβ (1–40) or Aβ monomers, oligomers or fibrils for 15 min
Assay [1] addresses T1, EEA-1 (mouse (endogenous in bEnd3)) (UniProt Q8BL66).
T1 sequence: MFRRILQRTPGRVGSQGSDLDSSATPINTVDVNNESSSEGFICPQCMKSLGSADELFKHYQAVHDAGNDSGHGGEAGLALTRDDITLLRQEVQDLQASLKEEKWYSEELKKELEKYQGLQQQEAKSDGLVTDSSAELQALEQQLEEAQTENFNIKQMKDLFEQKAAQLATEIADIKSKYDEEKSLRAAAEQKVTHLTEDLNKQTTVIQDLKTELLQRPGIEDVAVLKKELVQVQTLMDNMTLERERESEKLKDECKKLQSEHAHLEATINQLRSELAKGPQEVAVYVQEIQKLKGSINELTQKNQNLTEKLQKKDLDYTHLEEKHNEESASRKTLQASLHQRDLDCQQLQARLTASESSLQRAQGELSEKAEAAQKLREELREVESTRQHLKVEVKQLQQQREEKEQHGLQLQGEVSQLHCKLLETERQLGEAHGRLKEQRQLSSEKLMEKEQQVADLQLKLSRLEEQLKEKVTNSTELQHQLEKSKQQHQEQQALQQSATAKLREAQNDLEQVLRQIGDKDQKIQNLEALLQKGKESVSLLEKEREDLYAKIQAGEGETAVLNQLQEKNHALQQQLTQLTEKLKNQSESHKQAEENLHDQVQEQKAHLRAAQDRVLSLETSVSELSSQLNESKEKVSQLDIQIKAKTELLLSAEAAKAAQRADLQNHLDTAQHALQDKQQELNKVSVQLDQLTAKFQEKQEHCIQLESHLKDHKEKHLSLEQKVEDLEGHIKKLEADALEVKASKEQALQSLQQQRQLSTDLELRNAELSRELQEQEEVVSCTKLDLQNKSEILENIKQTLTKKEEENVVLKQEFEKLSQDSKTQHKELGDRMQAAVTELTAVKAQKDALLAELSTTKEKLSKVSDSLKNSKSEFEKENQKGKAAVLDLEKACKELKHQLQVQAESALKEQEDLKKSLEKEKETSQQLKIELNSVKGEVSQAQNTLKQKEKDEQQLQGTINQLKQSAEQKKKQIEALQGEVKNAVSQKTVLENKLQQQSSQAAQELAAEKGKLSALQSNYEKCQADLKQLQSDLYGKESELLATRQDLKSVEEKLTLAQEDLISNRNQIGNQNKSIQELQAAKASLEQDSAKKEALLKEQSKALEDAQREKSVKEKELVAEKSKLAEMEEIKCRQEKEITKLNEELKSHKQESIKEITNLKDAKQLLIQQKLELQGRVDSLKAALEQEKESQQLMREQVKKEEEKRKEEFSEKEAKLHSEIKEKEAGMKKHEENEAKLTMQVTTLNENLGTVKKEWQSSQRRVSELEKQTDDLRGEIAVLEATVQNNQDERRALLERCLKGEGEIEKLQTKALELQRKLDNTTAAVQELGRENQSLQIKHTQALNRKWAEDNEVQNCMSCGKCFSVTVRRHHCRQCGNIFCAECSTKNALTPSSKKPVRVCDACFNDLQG

The target in assay [2] is heavy chain of clathrin (mouse (endogenous in bEnd3)) (UniProt Q68FD5).
Assay [3] has as its target T2, phosphatidylinositol-binding clathrin assembly (PICALM) (mouse (endogenous in bEnd3)) (UniProt Q7M6Y3).
T2 sequence: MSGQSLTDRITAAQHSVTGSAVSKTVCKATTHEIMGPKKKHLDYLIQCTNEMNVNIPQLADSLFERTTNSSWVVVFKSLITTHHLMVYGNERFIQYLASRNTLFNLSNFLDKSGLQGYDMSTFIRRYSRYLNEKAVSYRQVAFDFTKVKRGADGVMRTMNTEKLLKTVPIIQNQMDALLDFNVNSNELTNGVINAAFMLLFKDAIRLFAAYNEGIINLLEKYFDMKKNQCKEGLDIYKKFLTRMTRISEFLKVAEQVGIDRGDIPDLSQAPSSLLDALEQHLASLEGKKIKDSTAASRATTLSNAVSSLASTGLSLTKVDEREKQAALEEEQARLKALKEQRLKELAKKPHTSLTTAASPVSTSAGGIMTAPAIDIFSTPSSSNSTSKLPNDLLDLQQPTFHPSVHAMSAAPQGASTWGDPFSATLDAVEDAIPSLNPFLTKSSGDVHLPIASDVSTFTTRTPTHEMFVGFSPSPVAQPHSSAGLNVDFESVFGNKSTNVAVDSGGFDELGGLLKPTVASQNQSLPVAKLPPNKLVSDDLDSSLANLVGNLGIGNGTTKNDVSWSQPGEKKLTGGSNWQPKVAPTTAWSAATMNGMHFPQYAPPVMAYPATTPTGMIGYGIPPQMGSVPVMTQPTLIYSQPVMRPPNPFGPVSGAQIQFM

The target in assay [4] is receptor for advanced glycation end-products (mouse (endogenous in bEnd3)) (UniProt Q62151).

As for “low-density lipoprotein receptor-related protein 1 (from UniProt Q91ZX7 20-4545)”, the binding entry in assay [1] and in assay [2] was “binds” in each case.
In the case of syndapin-2 (from UniProt Q9WVE8 1-486), the binding entry in assay [1] is on record as “no binding (tested: <20 dots per cell)”; in assay [3], “binds weakly”; in assay [4], “binds weakly”.
